# System: DIO mice
# Test: Combination of PYY3-36 and CB-1 inverse agonist AM-251 on food intake and bodyweight in DIO mice (Example 2)
# Type: in vivo, Male C57BL6 mice
# Conditions: PYY3-36 1 mpk (IP), AM251 1 mpk (PO), alone or co-administered
smiles,measurement,value
Cc1c(C(=O)NN2CCCCC2)nn(-c2ccc(Cl)cc2Cl)c1-c1ccc(I)cc1 [AM251],4-hour FI,−42%
same,16-hour FI,−23%

# From patent US20080064632A1, “Combination Therapy for the Treatment of Obesity” (priority 2004, published 2008)
